{
  "source": "paper PMC12029333",
  "note": "Results are given in words; binding and its absence hold for the method and conditions named. In cells and extracts the contact can be indirect. A yes stands for co-enrichment or nearness to the bait. Other partners may have been found. Sequences can lack the tags named with a protein.",
  "data": [
    {"target": "T1, GST-PrkC (Serine/threonine-protein kinase PrkC) (Bacillus subtilis str. 168) (UniProt O34507)", "T1 sequence": "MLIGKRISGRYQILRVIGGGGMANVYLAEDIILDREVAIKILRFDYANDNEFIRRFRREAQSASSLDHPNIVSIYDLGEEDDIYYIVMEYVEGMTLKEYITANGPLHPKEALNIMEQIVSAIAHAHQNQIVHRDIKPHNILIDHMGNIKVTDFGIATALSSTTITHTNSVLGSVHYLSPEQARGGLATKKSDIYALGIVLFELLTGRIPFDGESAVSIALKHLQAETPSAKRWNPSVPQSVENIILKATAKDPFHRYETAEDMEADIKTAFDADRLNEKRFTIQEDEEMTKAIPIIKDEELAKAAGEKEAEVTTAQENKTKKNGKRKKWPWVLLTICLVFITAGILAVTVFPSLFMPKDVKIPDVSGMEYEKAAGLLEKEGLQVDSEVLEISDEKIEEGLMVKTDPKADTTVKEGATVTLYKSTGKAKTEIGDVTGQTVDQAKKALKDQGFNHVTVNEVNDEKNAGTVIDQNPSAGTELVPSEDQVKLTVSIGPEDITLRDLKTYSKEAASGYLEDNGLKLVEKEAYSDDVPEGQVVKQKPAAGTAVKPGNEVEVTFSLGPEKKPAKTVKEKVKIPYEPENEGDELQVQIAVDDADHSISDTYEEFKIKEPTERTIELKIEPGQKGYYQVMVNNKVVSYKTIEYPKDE", "assay": "affinity purification with mass spectrometry; GST-PrkC on glutathione resin incubated with B. subtilis spore lysate at 4 °C; resin washed; bound proteins eluted with 20 mM reduced glutathione; eluate digested with trypsin and analysed by LC-MS/MS; hits filtered at 1% FDR, >=2 unique peptides; only the target purified", "values": [
      {"binder": "Carbamoyl phosphate synthase pyrimidine-specific large chain (protein, UniProt P25994 1-1071) MPKRVDINKILVIGSGPIIIGQAAEFDYAGTQACLALKEEGYEVILVNSNPATIMTDTEMADRVYIEPLTPEFLTRIIRKERPDAILPTLGGQTGLNLAVELSERGVLAECGVEVLGTKLSAIQQAEDRDLFRTLMNELNEPVPESEIIHSLEEAEKFVSQIGFPVIVRPAYTLGGTGGGICSNETELKEIVENGLKLSPVHQCLLEKSIAGYKEIEYEVMRDSQDHAIVVCNMENIDPVGIHTGDSIVVAPSQTLSDREYQLLRNVSLKLIRALGIEGGCNVQLALDPDSFQYYIIEVNPRVSRSSALASKATGYPIAKLAAKIAVGLSLDEMMNPVTGKTYAAFEPALDYVVSKIPRWPFDKFESANRKLGTQMKATGEVMAIGRTLEESLLKAVRSLEADVYHLELKDAADISDELLEKRIKKAGDERLFYLAEAYRRGYTVEDLHEFSAIDVFFLHKLFGIVQFEKELKANAGDTDVLRRAKELGFSDQYISREWKMKESELYSLRKQAGIAPVFKMVDTCAAEFESETPYFYSTYEEENESVVTDKKSVMVLGSGPIRIGQGVEFDYATVHSVWAIKQAGYEAIIVNNNPETVSTDFSISDKLYFEPLTIEDVMHIIDLEQPMGVVVQFGGQTAINLADELSARGVKILGTSLEDLDRAEDRDKFEQALGELGVPQPLGKTATSVNQAVSIASDIGYPVLVRPSYVLGGRAMEIVYHEEELLHYMKNAVKINPQHPVLIDRYLTGKEIEVDAVSDGETVVIPGIMEHIERAGVHSGDSIAVYPPQSLTEDIKKKIEQYTIALAKGLNIVGLLNIQFVLSQGEVYVLEVNPRSSRTVPFLSKITGIPMANLATKIILGQKLAAFGYTEGLQPEQQGVFVKAPVFSFAKLRRVDITLGPEMKSTGEVMGKDSTLEKALYKALIASGIQIPNYGSVLLTVADKDKEEGLAIAKRFHAIGYNILATEGTAGYLKEASIPAKVVGKIGQDGPNLLDVIRNGEAQFVINTLTKGKQPARDGFRIRRESVENGVACLTSLDTAEAILRVLESMTFRADQMPAVNTNQEAAVTI", "binding": "binds"},
      {"binder": "DNA repair protein RecN (protein, UniProt P17894 1-576) MLAELSIKNFAIIEELTVSFERGLTVLTGETGAGKSIIIDAISLLVGGRGSSEFVRYGEAKAELEGLFLLESGHPVLGVCAEQGIDVSDEMIVMRRDISTSGKSVCRVNGKLVTIASLREIGRLLLDIHGQHDNQLLMEDENHLQLLDKFAGAEVESALKTYQEGYQRYVKLLKKLKQLSESEQEMAHRLDLIQFQLEEIESAKLELNEDEQLQEERQQISNFEKIYESLQNAYNALRSEQGGLDWVGMASAQLEDISDINEPLKKMSESVSNSYYLLEDATFQMRNMLDELEFDPERLNYIETRLNEIKQLKRKYGATVEDILEYASKIEEEIDQIENRDSHLQSLKKELDSVGKDVAVEAANVSQIRKTWAKKLADEIHRELKSLYMEKSTFDTEFKVRTASRNEEAPLVNGQPVQLTEQGIDLVKFLISTNTGEPLKSLSKVASGGELSRVMLAIKSIFSSQQDVTSIIFDEVDTGVSGRVAQAIAEKIHKVSIGSQVLCITHLPQVAAMADTHLYIAKELKDGRTTTRVKPLSKQEKVAEIGRMIAGVEVTDLTKRHAKELLKQADQVKTTG", "binding": "binds"},
      {"binder": "Cytochrome c biogenesis protein ResB (protein, UniProt P35161 1-542) MKQVKCECGHINPVGTVLCESCGRALQETQPPLADMRYDGSARRSQTYNKTIIDKIWNFFSSVKVGIWLIVITLAASAFGTIFPQEAYLPPGAQADTYYKEQYGTFGQLYYLLGFHHLYGSWWYLLLIASIGISLVICSLDRVIPLYRALKNQGVRRSPAFLRRQRLFSETVTVLNGESKEKIVTLLKKKHYRIREKEGSILAEKGRFSRWGPYVNHIGLIIFLIGAMLRFVPGMYVDETLWVREGETAAIPGTDGKYYLKNNQFSVETYNSKTEKKVFADAIDRVGDGRVAKNFQTDAVLYKREGKIVYGEKPKLEKVTEEDIRVNQPLRFDSFSVYQVDYKENQLDQMVFQLIDKKTKKSFGSLKINLLDPDSVYDLGNGYKVEIASYLPDFYFNQDGEPSTKTKIPNNPAFVFNIITPDKPKGEKSFVAIQETIEGSGNNKYKLKFDHVETKNITGLTVRKDLTLWVLAVGGAIFMIGVIQGMYWQHRRIWLHSQDGAVMVAGHTNKNWFGLKKDLAFILADSGLTEPVDQKELIKTQK", "binding": "binds"},
      {"binder": "Transcription termination factor Rho (protein, UniProt Q03222 1-427) MKDVSISSLENMKLKELYELARHYKISYYSKLTKKELIFAILKANAEQEDLLFMEGVLEIIQSEGFGFLRPINYSPSSEDIYISASQIRRFDLRNGDKVSGKVRPPKENERYYGLLHVEAVNGDDPESAKERVHFPALTPLYPDRQMVLETKPNFLSTRIMDMMAPVGFGQRGLIVAPPKAGKTMLLKEIANSITANQPEAELIVLLIDERPEEVTDIERSVAGDVVSSTFDEVPENHIKVAELVLERAMRLVEHKKDVIILMDSITRLARAYNLVIPPSGRTLSGGIDPAAFHRPKRFFGAARNIEEGGSLTILATALVDTGSRMDDVIYEEFKGTGNMELHLDRSLAERRIFPAIDIRRSGTRKEELLVPKEHLDRLWSIRKTMSDSPDFAEKFMRKMKKTKTNQEFFDILNQEWKQANLSSARR", "binding": "binds"},
      {"binder": "Tryptophan RNA-binding attenuator protein inhibitory protein (protein, UniProt O31466 1-53) MVIATDDLEVACPKCERAGEIEGTPCPACSGKGVILTAQGYTLLDFIQKHLNK", "binding": "binds"},
      {"binder": "Nuclease SbcCD subunit C (protein, UniProt O06714 1-1130) MKPIALSIKGLHSFREEQTIDFEGLSGAGVFGIFGPTGSGKSSILDAMTLALYGKVERAANNTHGILNHAEDTLSVSFTFALQTNHQISYKVERVFKRTDEMKVKTALCRFIEIKDEHTVLADKASEVNKRVEELLGLTIDDFTRAVVLPQGKFAEFLSLKGAERRHMLQRLFNLEQYGDRLVKKLRRQAQEANARKNEMLAEQSGLGEASSEAVEQAEKVLEQAEARLEAMRKNRDQAKERFTEHQEIWNVQKEKSTYEEEEKRLAEEQPHIDSMQKRLLEAETAAALKPYADRYAEAIQHEEQAEKEQTLAQKDLADRTAFFQQKHEEYEAWRQHKSEKEPELLAKQEQLSRLQEIEIKLSEAKQEEERKKADLRQKEEALQSVMNELETVTDRLTRGQNRQTELKQQLKSLQVTSDERKSCQQAAEMALRIRQTEEQIKKEKKRSEELNLVLQKMNEEKNTLVQKTEAEENNIIQAYEAVQTVYHLVCETERSLTRMTEEARKSQHTLHLQREKARVALLTKELAQKLTAGKPCPVCGSTDHDPSASVHETYEADSHLEEDIKRTDVLLTEAAALSQEILSAKIMLEEQSARFIEQCPFLQTIQAQNLEAAASFEHQPVYEAFETAKFEWKRIKQDILSVKTRMAQMIGAYQESLKKAEQLNEKIGFEKREADRIESIISELQSSMDSSLNMFKEAFQNQSVDEAEKWQQAIEEKDRAAEECEKRIEKSIAFLAEHEAQKEKLRESGHRLEREKLELHYAAERIKSVIADYEHELGDYAKGDSIQIKLRSVQQDLKLLKEKEQSLYEELQSAQMKLNQAKSRASASELTLQEAKGRLEKAKAAWLEHTKNTSITRTEEVEQSLIPADELEKMKTGIDQFMDKLKQNAANLKRVAEILAGRALSESEWNETVAALQEAEDAFGAAIEEKGAAAKALAVIRDHHKRFNEIEAELKKWQMHIDRLDKLQAVFKGNTFVEFLAEEQLESVARDASARLSMLTRQRYAIEVDSEGGFVMRDDANGGVRRPVSSLSGGETFLTSLSLALALSAQIQLRGEYPLQFFFLDEGFGTLDQDLLDTVVTALEKLQSDNLAVGVISHVQELRARLPKKLIVHPAEPSGRGTRVSLELM", "binding": "binds"},
      {"binder": "DNA translocase SpoIIIE (protein, UniProt P21458 1-787) MAKKKRKSRKKQAKQLNIKYELNGLLCIAISIIAILQLGVVGQTFIYLFRFFAGEWFILCLLGLLVLGVSLFWKKKTPSLLTRRKAGLYCIIASILLLSHVQLFKNLTHKGSIESASVVRNTWELFLMDMNGSSASPDLGGGMIGALLFAASHFLFASTGSQIMAIVMILIGMILVTGRSLQETLKKWMSPIGRFIKEQWLAFIDDMKSFKSNMQSSKKTKAPSKKQKPARKKQQMEPEPPDEEGDYETVSPLIHSEPIISSFSDRNEEEESPVIEKRAEPVSKPLQDIQPETGDQETVSAPPMTFTELENKDYEMPSLDLLADPKHTGQQADKKNIYENARKLERTFQSFGVKAKVTQVHLGPAVTKYEVYPDVGVKVSKIVNLSDDLALALAAKDIRIEAPIPGKSAIGIEVPNAEVAMVSLKEVLESKLNDRPDAKLLIGLGRNISGEAVLAELNKMPHLLVAGATGSGKSVCVNGIITSILMRAKPHEVKMMMIDPKMVELNVYNGIPHLLAPVVTDPKKASQALKKVVNEMERRYELFSHTGTRNIEGYNDYIKRANNEEGAKQPELPYIVVIVDELADLMMVASSDVEDSITRLSQMARAAGIHLIIATQRPSVDVITGVIKANIPSRIAFSVSSQTDSRTILDMGGAEKLLGRGDMLFLPVGANKPVRVQGAFLSDDEVEKVVDHVITQQKAQYQEEMIPEETTETHSEVTDELYDEAVELIVGMQTASVSMLQRRFRIGYTRAARLIDAMEERGVVGPYEGSKPREVLLSKEKYDELSS", "binding": "binds"},
      {"binder": "Serine protease AprX (protein, UniProt O31788 1-442) MFGYSMVQMVRANAHKLDWPLRETVLQLYKPFKWTPCFLHKFFETKLQNRKKMSVIIEFEEGCHETGFQMAGEVLQKEKRSKLKSRFNKINCCSAEVTPSALHSLLSECSNIRKVYLNREVKALLDTATEASHAKEVVRNGQTLTGKGVTVAVVDTGIYPHPDLEGRIIGFADMVNQKTEPYDDNGHGTHCAGDVASSGASSSGQYRGPAPEANLIGVKVLNKQGSGTLADIIEGVEWCIQYNEDNPDEPIDIMSMSLGGDALRYDHEQEDPLVRAVEEAWSAGIVVCVAAGNSGPDSQTIASPGVSEKVITVGALDDNNTASSDDDTVASFSSRGPTVYGKEKPDILAPGVNIISLRSPNSYIDKLQKSSRVGSQYFTMSGTSMATPICAGIAALILQQNPDLTPDEVKELLKNGTDKWKDEDPNIYGAGAVNAENSVPGQ", "binding": "binds"}
    ]}
  ]
}
